# According to the supplement of paper PMC10849652:
# Sequences of proteins named here, by UniProt entry; tags and fusion partners are left off. A change or cut given only in a name is not applied to a line headed by its entry.
# UniProt O43156, whole entry, looked up: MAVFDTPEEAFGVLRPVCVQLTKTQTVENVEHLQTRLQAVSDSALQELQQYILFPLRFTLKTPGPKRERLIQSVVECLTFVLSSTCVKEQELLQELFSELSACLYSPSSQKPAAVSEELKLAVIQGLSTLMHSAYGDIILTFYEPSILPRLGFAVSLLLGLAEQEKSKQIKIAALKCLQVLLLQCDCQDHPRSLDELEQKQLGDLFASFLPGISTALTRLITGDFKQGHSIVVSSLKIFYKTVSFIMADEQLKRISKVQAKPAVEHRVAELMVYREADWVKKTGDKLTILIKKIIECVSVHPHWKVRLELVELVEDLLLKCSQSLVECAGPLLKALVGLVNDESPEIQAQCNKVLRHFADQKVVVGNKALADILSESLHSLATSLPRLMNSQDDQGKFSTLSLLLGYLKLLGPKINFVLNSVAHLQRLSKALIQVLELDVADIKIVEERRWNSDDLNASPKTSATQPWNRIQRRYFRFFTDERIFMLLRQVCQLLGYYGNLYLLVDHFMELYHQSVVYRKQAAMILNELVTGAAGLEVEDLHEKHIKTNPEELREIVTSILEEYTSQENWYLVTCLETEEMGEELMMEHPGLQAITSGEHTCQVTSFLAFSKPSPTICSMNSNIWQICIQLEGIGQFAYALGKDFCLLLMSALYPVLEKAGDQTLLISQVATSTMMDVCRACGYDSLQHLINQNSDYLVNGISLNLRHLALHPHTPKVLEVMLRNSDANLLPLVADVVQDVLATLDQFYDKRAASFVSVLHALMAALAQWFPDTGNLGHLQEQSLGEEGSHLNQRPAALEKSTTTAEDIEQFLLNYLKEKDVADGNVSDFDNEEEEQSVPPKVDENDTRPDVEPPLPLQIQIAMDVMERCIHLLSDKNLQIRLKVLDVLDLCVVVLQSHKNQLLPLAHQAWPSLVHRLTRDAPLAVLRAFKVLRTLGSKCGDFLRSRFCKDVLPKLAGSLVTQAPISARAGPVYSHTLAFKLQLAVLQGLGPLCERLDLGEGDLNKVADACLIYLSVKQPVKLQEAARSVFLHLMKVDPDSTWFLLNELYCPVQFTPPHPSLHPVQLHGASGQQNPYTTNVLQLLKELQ
# UniProt P19474, whole entry, looked up: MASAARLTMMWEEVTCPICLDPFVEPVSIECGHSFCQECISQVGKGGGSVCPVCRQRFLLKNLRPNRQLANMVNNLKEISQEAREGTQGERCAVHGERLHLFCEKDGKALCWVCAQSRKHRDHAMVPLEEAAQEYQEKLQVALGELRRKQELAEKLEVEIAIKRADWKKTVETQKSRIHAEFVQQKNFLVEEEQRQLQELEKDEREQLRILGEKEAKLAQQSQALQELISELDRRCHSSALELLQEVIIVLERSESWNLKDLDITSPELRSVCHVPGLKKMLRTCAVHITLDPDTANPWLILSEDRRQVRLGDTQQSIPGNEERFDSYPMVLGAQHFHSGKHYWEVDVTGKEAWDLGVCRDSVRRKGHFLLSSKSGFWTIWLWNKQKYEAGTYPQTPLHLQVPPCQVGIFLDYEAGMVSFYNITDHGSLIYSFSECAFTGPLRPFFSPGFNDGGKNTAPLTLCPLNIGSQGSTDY
# UniProt Q8IUR0, whole entry, looked up: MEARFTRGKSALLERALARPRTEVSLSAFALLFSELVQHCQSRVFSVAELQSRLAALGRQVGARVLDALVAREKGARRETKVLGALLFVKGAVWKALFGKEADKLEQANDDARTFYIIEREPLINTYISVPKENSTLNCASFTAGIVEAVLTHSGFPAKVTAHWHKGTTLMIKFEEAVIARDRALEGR
# UniProt Q6DKK2: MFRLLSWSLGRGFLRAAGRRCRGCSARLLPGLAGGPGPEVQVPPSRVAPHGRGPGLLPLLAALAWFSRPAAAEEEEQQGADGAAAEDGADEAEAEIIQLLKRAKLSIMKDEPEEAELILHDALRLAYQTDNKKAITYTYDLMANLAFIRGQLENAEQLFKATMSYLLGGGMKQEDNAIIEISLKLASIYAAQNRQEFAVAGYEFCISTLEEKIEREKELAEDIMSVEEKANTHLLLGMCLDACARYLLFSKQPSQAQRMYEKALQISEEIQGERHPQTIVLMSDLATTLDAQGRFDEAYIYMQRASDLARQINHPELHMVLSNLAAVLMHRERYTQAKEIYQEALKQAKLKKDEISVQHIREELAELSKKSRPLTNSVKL
# UniProt Q96AE7: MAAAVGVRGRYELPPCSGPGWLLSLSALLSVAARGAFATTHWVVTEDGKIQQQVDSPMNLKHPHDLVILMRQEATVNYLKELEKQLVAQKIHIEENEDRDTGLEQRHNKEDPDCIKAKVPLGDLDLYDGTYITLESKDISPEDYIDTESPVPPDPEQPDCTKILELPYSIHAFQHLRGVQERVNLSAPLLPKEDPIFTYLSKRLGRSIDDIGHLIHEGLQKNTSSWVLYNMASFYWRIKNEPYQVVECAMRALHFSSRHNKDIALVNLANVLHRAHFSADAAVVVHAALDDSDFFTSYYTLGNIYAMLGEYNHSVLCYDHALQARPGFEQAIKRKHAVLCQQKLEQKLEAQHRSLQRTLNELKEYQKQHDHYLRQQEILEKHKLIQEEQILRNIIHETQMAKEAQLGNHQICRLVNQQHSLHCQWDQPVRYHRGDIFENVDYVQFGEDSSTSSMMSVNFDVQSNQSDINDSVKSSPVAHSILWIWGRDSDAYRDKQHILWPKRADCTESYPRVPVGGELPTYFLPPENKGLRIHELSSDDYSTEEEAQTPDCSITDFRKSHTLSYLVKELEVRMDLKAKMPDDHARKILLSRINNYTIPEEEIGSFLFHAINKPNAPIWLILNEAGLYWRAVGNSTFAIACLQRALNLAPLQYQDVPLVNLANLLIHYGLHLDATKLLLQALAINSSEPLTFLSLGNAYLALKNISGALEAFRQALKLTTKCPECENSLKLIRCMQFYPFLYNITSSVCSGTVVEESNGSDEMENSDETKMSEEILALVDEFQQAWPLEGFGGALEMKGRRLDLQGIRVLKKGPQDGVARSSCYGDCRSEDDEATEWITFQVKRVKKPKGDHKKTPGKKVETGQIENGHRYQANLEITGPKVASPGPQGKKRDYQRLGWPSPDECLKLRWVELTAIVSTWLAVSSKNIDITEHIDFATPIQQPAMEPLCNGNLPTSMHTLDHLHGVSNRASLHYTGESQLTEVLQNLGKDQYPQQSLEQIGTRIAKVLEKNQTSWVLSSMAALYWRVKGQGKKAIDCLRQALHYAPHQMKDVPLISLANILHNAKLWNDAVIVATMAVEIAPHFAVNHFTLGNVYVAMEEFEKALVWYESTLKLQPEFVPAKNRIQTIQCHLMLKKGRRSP
# UniProt Q6NXR4: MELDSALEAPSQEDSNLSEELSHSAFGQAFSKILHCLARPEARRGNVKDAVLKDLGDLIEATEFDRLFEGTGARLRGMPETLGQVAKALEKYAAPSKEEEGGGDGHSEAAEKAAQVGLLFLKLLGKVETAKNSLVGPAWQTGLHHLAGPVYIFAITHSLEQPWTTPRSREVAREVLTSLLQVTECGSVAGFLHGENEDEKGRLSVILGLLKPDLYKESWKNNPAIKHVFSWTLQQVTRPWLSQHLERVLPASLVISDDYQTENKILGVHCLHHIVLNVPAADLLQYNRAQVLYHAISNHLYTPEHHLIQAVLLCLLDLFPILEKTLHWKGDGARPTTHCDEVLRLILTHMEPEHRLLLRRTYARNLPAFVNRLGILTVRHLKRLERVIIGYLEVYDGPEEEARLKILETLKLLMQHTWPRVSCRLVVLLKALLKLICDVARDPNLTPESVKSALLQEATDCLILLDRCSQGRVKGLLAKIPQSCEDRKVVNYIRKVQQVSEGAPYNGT
# UniProt Q7Z4G4: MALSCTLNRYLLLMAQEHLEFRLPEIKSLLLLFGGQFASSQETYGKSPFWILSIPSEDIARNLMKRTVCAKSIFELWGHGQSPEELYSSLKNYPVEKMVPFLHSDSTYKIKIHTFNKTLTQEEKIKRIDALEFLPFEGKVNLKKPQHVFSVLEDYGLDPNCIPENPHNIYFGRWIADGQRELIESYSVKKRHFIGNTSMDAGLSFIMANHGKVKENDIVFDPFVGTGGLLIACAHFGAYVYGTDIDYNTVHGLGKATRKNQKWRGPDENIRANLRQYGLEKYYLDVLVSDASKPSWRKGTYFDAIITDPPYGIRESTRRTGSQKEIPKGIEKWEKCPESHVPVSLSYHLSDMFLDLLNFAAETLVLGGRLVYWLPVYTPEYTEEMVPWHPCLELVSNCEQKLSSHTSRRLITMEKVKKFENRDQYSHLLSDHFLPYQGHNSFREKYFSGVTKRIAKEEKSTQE
# UniProt Q9H892: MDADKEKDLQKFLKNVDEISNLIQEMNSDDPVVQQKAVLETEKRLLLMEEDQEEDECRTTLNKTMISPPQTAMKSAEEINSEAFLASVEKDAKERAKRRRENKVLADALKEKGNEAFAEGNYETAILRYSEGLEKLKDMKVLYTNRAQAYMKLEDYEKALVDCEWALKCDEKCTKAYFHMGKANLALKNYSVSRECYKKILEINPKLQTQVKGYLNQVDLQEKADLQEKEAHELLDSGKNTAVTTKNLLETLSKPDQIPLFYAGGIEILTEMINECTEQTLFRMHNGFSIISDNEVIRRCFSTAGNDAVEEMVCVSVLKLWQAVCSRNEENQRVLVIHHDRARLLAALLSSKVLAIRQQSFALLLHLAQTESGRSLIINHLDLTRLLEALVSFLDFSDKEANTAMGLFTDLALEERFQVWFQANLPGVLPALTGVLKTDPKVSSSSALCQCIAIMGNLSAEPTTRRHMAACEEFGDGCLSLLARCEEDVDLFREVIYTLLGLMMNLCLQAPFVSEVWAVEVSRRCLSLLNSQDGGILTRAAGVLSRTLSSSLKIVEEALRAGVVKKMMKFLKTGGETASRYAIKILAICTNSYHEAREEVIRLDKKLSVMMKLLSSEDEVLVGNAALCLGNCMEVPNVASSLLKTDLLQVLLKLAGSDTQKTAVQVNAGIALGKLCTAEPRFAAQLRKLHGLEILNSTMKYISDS
# UniProt Q9NX07: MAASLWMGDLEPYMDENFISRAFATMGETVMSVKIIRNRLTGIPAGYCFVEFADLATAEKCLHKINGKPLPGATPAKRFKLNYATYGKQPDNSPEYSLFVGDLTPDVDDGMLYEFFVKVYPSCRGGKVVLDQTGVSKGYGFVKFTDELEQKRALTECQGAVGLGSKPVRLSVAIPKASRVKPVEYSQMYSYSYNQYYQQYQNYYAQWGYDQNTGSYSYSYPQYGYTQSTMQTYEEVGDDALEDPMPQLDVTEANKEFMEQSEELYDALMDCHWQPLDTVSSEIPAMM
# UniProt Q8TDR0: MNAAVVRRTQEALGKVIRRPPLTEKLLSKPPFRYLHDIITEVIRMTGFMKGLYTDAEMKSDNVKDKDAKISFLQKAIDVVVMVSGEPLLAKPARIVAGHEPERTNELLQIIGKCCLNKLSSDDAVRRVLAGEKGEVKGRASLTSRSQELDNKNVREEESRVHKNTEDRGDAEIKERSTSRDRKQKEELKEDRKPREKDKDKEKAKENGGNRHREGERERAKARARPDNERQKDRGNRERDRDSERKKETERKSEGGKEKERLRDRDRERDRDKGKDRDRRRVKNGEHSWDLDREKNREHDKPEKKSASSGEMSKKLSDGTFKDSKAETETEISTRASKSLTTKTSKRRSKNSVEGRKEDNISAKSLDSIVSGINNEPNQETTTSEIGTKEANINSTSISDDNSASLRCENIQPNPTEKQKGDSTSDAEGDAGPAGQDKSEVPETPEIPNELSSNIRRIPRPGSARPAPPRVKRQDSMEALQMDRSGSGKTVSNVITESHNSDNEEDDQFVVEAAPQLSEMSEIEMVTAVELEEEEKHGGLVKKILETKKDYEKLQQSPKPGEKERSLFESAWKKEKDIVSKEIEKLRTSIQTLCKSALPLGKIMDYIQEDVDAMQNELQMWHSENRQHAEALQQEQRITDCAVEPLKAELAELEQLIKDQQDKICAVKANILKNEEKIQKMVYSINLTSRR
# UniProt Q8IZ69: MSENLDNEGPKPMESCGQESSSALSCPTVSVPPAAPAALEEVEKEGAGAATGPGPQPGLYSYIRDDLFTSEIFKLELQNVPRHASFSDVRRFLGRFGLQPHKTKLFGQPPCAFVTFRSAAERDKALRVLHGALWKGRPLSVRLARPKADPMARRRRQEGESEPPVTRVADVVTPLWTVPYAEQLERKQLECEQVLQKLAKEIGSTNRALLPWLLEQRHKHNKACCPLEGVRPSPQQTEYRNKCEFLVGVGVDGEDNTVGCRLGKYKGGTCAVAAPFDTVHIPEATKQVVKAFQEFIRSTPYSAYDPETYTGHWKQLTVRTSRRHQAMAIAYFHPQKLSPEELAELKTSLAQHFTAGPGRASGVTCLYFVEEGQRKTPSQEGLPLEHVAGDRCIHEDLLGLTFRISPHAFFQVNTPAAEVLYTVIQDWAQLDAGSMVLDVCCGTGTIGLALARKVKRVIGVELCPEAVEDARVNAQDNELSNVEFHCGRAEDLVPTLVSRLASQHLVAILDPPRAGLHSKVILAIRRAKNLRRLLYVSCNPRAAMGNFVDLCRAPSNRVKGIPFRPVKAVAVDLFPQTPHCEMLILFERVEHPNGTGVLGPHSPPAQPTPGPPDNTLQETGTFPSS
# This is one part of the list.
# What was measured:
# Assay in all cases: log2 fold change, soluble protein after heating vs DMSO (PISA); higher = thermal stabilisation; K562 lysate, 10 uM; active = over 0.2 and 3.5 SD of the protein, either way, in both replicates (recomputed)
# [1] = compound: CS(=O)(=O)CCNCc1ccc(-c2ccc3ncnc(Nc4ccc(OCc5cccc(F)c5)c(Cl)c4)c3c2)o1 [lapatinib]
# How it was run: (§1)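 Thermal stability, expressed as log-two fold change relative to solvent controls, is given from duplicates. Crude K562 extract in PBS pH 7.4 with 1 mM MgCl2, at 1 mg/mL protein, was treated with 10 μM compound for 30 min and heated in aliquots for 3 min across 48°C-58°C. After pooling, adjustment to 0.5% NP-40 at 4°C and centrifugation at 21,000xg for 90 min, supernatant protein was measured by TMTpro 16plex LC-MS/MS with channel sums equalised.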
# [2] = compound: CS(=O)(=O)N1CCN(Cc2cc3nc(-c4cccc5[nH]ncc45)nc(N4CCOCC4)c3s2)CC1 [pictilisib]
# How it was run: as §1
# [3] = compound: C[C@@H](Oc1cc(-c2cnn(C3CCNCC3)c2)cnc1N)c1c(Cl)ccc(F)c1Cl [crizotinib]
# How it was run: as §1
# [4] = compound: C[C@H](C1=CC=C(C=C1)C(=O)NC2=C3C=CNC3=NC=C2)N
# How it was run: as §1
# [5] = compound: C[C@H](Nc1ncnc2nc[nH]c12)c1cc2cccc(Cl)c2c(=O)n1-c1ccccc1 [duvelisib]
# How it was run: as §1
# [6] = compound: Cc1cc(Nc2cc(CN3CCOCC3)c3nc(C)c(Cc4ccc(Cl)cc4F)n3n2)n[nH]1 [gandotinib]
# How it was run: as §1
# [7] = compound: Cc1cc(Nc2cc(N3CCN(C)CC3)nc(Sc3ccc(NC(=O)C4CC4)cc3)n2)n[nH]1 [tozasertib]
# How it was run: as §1
# [8] = compound: Cc1ccc(-n2nc(C(C)(C)C)cc2NC(=O)Nc2ccc(OCCN3CCOCC3)c3ccccc23)cc1 [doramapimod]
# How it was run: as §1
# [9] = compound: Cc1ccc(NC(=O)c2ccc(CN3CC[C@H](N(C)C)C3)c(C(F)(F)F)c2)cc1Nc1nccc(-c2cncnc2)n1 [bafetinib]
# How it was run: as §1
# [10] = compound: Cc1cccc(CC(=O)N2CCc3c2ccc(-c2cn(C)c4ncnc(N)c24)c3F)n1
# How it was run: as §1
Target,log2 fold change [1],log2 fold change [2],log2 fold change [3],log2 fold change [4],log2 fold change [5],log2 fold change [6],log2 fold change [7],log2 fold change [8],log2 fold change [9],log2 fold change [10]
TTI1 (UniProt O43156),inactive: -0.011,inactive: -0.044,inactive: -0.11,inactive: -0.075,inactive: -0.005,inactive: -0.113,inactive: 0.028,inactive: 0.045,inactive: -0.016,inactive: 0.056
TSPO (UniProt P30536),inactive: -0.019,inactive: 0.021,inactive: 0.014,inactive: -0.142,inactive: 0,inactive: 0.096,inactive: -0.086,inactive: 0.089,inactive: -0.057,inactive: 0.012
TRIP6 (UniProt Q15654),inactive: -0.006,inactive: 0.01,inactive: 0.018,inactive: -0.036,inactive: 0.013,inactive: 0.041,inactive: -0.027,inactive: 0.003,inactive: -0.034,inactive: -0.007
TRIM21 (UniProt P19474),inactive: -0.069,inactive: -0.14,inactive: 0.005,inactive: 0.29,inactive: 0.05,inactive: -0.031,inactive: 0.074,inactive: -0.092,inactive: -0.116,inactive: -0.12
TRAPPC5 (UniProt Q8IUR0),inactive: -0.03,inactive: 0.013,inactive: 0.014,inactive: -0.001,inactive: 0.049,inactive: -0.108,inactive: -0.027,inactive: 0.023,inactive: -0.078,inactive: 0.038
TRIP11 (UniProt Q15643),inactive: -0.003,inactive: 0.086,inactive: -0.008,inactive: -0.052,inactive: -0.017,inactive: 0.083,inactive: -0.037,inactive: 0.059,inactive: -0.088,inactive: 0.109
TSEN54 (UniProt Q7Z6J9),inactive: 0.008,inactive: -0.064,inactive: -0.135,inactive: 0.03,inactive: -0.03,inactive: 0.031,inactive: -0.011,inactive: 0.016,inactive: -0.008,inactive: 0.086
TRAPPC3 (UniProt O43617),inactive: -0.007,inactive: -0.016,inactive: 0.065,inactive: 0.007,inactive: 0.002,inactive: -0.021,inactive: 0.045,inactive: -0.032,inactive: 0.001,inactive: -0.004
TRIR (UniProt Q9BQ61),inactive: 0.028,inactive: 0.017,inactive: 0.058,inactive: -0.057,inactive: 0.004,inactive: 0.055,inactive: 0.031,inactive: 0,inactive: 0.012,inactive: 0.028
TTC38 (UniProt Q5R3I4),inactive: -0.034,inactive: -0.029,inactive: 0.031,inactive: 0.213,inactive: -0.022,inactive: -0.116,inactive: -0.011,active: 0.301,inactive: 0.065,inactive: -0.186
TROAP (UniProt Q12815),inactive: 0.001,inactive: -0.088,inactive: 0.038,inactive: -0.065,inactive: -0.095,inactive: 0.072,inactive: -0.009,inactive: -0.008,inactive: -0.1,inactive: 0.004
TRIM38 (UniProt O00635),inactive: 0.04,inactive: 0.01,inactive: -0.049,inactive: -0.066,inactive: -0.077,inactive: -0.027,inactive: -0.105,inactive: 0.034,inactive: -0.04,inactive: 0.06
TTC19 (UniProt Q6DKK2),inactive: -0.003,inactive: 0.006,inactive: -0.063,inactive: -0.072,inactive: -0.028,inactive: 0.006,inactive: -0.034,inactive: 0.031,inactive: -0.038,inactive: 0.066
TTK (UniProt P33981),inactive: 0.061,inactive: 0.142,inactive: -0.008,inactive: 0,inactive: -0.031,inactive: 0.058,inactive: -0.054,inactive: 0.143,inactive: -0.068,inactive: 0.024
TRMT112 (UniProt Q9UI30),inactive: 0.025,inactive: 0.036,inactive: -0.012,inactive: 0.033,inactive: 0.027,inactive: -0.041,inactive: 0.036,inactive: -0.009,inactive: 0.007,inactive: -0.001
TRMT10C (UniProt Q7L0Y3),inactive: -0.012,inactive: 0.026,inactive: -0.007,inactive: 0.015,inactive: 0.037,inactive: -0.064,inactive: 0.039,inactive: 0.034,inactive: 0.057,inactive: -0.016
TTC17 (UniProt Q96AE7),inactive: -0.011,inactive: -0.111,inactive: 0.009,inactive: -0.038,inactive: -0.025,inactive: 0.125,inactive: 0.059,inactive: 0.029,inactive: -0.045,inactive: 0.058
TSC22D2 (UniProt O75157),inactive: -0.015,inactive: -0.021,inactive: -0.013,inactive: 0.02,inactive: 0.048,inactive: 0.029,inactive: 0.009,inactive: 0.031,inactive: -0.122,inactive: 0.011
TRMT61B (UniProt Q9BVS5),inactive: 0.02,inactive: -0.008,inactive: 0.004,inactive: -0.047,inactive: -0.039,inactive: 0.075,inactive: -0.036,inactive: -0.019,inactive: 0.002,inactive: 0.015
TRMT1 (UniProt Q9NXH9),inactive: -0.016,inactive: 0.008,inactive: -0.013,inactive: -0.043,inactive: 0.039,inactive: 0.036,inactive: 0.022,inactive: 0.02,inactive: -0.038,inactive: 0.011
TTI2 (UniProt Q6NXR4),inactive: -0.033,inactive: -0.033,inactive: -0.016,inactive: -0.032,inactive: -0.018,inactive: -0.023,inactive: 0.004,inactive: -0.023,inactive: -0.017,inactive: 0.082
TRMT11 (UniProt Q7Z4G4),inactive: -0.007,inactive: -0.028,inactive: 0.018,inactive: 0.006,inactive: -0.008,inactive: 0,inactive: 0.011,inactive: -0.006,inactive: 0.032,inactive: -0.021
TTC12 isoform 2 (UniProt Q9H892),inactive: -0.053,inactive: -0.153,inactive: -0.068,inactive: -0.416,inactive: 0.143,inactive: 0.031,inactive: 0.092,inactive: 0.022,inactive: -0.14,active: 0.445
TSC22D1 (UniProt Q15714),inactive: -0.029,inactive: -0.038,inactive: -0.027,inactive: -0.034,inactive: 0.022,inactive: 0.03,inactive: -0.003,inactive: 0.006,inactive: -0.046,inactive: -0.023
TSTD2 (UniProt Q5T7W7),inactive: -0.082,inactive: -0.062,,inactive: 0.041,inactive: -0.012,inactive: -0.326,,,inactive: -0.215,inactive: -0.053
TRNAU1AP (UniProt Q9NX07),inactive: 0,inactive: -0.091,inactive: -0.019,inactive: -0.221,inactive: -0.058,inactive: 0.042,inactive: -0.018,inactive: 0.031,inactive: -0.001,inactive: 0.061
TRAF6 (UniProt Q9Y4K3),inactive: -0.038,inactive: -0.013,inactive: -0.034,inactive: 0.087,inactive: -0.037,inactive: -0.052,inactive: -0.013,inactive: 0.025,inactive: 0.055,inactive: -0.031
TRAF3IP1 (UniProt Q8TDR0),inactive: 0.011,inactive: -0.032,inactive: 0.093,,inactive: 0.112,,inactive: 0.039,inactive: -0.044,inactive: -0.124,
TRMT2A (UniProt Q8IZ69),inactive: -0.01,inactive: -0.057,inactive: -0.017,inactive: -0.002,inactive: -0.036,inactive: -0.03,inactive: 0.001,inactive: -0.002,inactive: -0.016,inactive: 0.009
TRAPPC2 isoform 3 (UniProt P0DI81),inactive: 0.031,inactive: -0.142,inactive: 0.023,inactive: -0.008,inactive: 0.054,inactive: -0.113,inactive: 0.018,inactive: 0.066,inactive: 0.075,inactive: 0.032

# Single records (already shown). Order of values: log2 fold change [1] | log2 fold change [2] | log2 fold change [3] | log2 fold change [4] | log2 fold change [5] | log2 fold change [6] | log2 fold change [7] | log2 fold change [8] | log2 fold change [9] | log2 fold change [10]
# TTK (UniProt P33981) is entered as inactive: 0.061 | inactive: 0.142 | inactive: -0.008 | inactive: 0 | inactive: -0.031 | inactive: 0.058 | inactive: -0.054 | inactive: 0.143 | inactive: -0.068 | inactive: 0.024
# TRIR (UniProt Q9BQ61) is entered as inactive: 0.028 | inactive: 0.017 | inactive: 0.058 | inactive: -0.057 | inactive: 0.004 | inactive: 0.055 | inactive: 0.031 | inactive: 0 | inactive: 0.012 | inactive: 0.028
